# Reference: PubChem BioAssay AID504834 (National Center for Advancing Translational Sciences (NCATS), 2011)
# In all, about 320,000 compounds went through this assay and about 22,000 (6.9%) were called active. This list was built around the results that the source calls inconclusive (neither active nor inactive); the mix of calls is not that of the screen. The call rests on the fitted dose curve; in most records, active means well fitted inhibition curve with a large enough effect; inconclusive means small, poorly fitted or top-dose-only effect, or another doubt; inactive means no such curve, though single readings can be large or run the other way. A potency beside an inconclusive call is a rough fit, not a confirmed value.
# Assay: Primary qHTS for delayed death inhibitors of the malarial parasite plastid, 96 hour incubation
# Details: P. falciparum luciferase reporter growth; series mostly up to 28.7 µM; activity change, negative = inhibition: at the top concentration
# Outline: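 Two parasite generations (96 h, 37 C, 5% CO2) of compound exposure in infected erythrocytes (0.05% parasitemia, 2% hematocrit). Luciferase-reporter P. falciparum; decreased luminescence indicates inhibited growth, aimed at apicoplast-acting delayed death.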
# On the % scale 0 is the no-effect control and ±100 the full control effect; potency means the concentration at half of the fitted maximal effect.
Compound,Potency,"activity change, negative = inhibition"
COc1ccccc1-c1nnc(SCC(=O)Nc2ccc(N3CCOCC3)cc2)n1C,"inconclusive: 10.4 µM [inhibitor, single point]",
Cc1ccc(NC(=O)c2cncc(Br)c2)nc1,,inactive: 162%
Cc1ccc2nc(SCC(=O)NC3CC3)[nH]c2c1,,inactive: 10%
O=S(=O)(NC1CCCCC1N1CCN(c2ccc(F)cc2)CC1)c1ccc(Cl)cc1 (stereo not given),"inconclusive: 3.29 µM [inhibitor, partial curve]",
CC1=C(C)CC(C(=O)NC2CCN(C(C)C)CC2)C(C(=O)O)C1 (stereo not given),,inactive: -1.99%
O=C(CSc1nnnn1Cc1ccccc1)Nc1ccc2c(c1)OCCO2,,inactive: 4.34% [at 5.75 µM]
CC1CC(C)CN(S(=O)(=O)N2CCCC(C(=O)NCCc3ccccc3)C2)C1 (stereo not given),,inactive: 26.2%
O=C(CNC(=O)c1ccccc1F)OCC(=O)c1ccc(Cl)s1,,inactive: 20.8%
Cc1cc(C)c(C(=O)Cn2nc(C)c([N+](=O)[O-])c2C)cc1C,,inactive: -25.7%
CC(C)N(Cc1ccccc1)C(=O)COC(=O)CCC(=O)c1ccc(F)cc1,,inactive: 10.6%
CCNC(=O)C(=O)Nc1ccc([N+](=O)[O-])cc1,"inconclusive: 20.8 µM [inhibitor, partial curve, poor fit]",
COc1cc(CNc2ccccc2SC)cc(OC)c1OC,"inconclusive: 11.7 µM [inhibitor, partial curve, poor fit]",
CCOC(=O)c1cc(-c2ccc(F)cc2)n(CC(=O)NCc2cccnc2)c1C,active: 2.62 µM,
O=C(CN1CCc2ccccc21)NC(c1ccccc1)c1ccccc1,"inconclusive: 2.62 µM [inhibitor, full curve, poor fit]",
O=C(NCCc1cccc(Cl)c1)c1cccc([N+](=O)[O-])c1,,inactive: 0.93%
Cc1cc(C)c(S(=O)(=O)c2ccccc2)c(OC(=O)c2ccc(Cl)cc2Cl)n1,"inconclusive: 1.31 µM [inhibitor, partial curve, poor fit]",
O=C(c1ccccc1)C(CN1CCCC1)c1ccccc1 (stereo not given),active: 11.7 µM,
COc1ccc(C2=Nn3c(nnc3-c3cc(C)[nH]n3)SC2)cc1,"inconclusive: 6.57 µM [inhibitor, partial curve, poor fit]",
O=C(CCN1C(=O)[C@H]2CC=CC[C@H]2C1=O)NCc1nc(-c2ccc(Cl)cc2)no1,"inconclusive: 14.7 µM [inhibitor, single point]",
COc1ccccc1NS(=O)(=O)c1ccc(N/N=C/c2ccccc2OCC(=O)O)c([N+](=O)[O-])c1,"inconclusive: 1.47 µM [inhibitor, full curve, poor fit]",
O=C(Cc1ccccc1)NN1C(=O)C2C3C=CC(C4CC34)C2C1=O (stereo not given),"inconclusive: 1.85 µM [inhibitor, full curve, poor fit]",
CC(=O)C1=C(C)OC(N)=C(C(=O)OC(C)C)C12C(=O)Nc1ccccc12 (stereo not given),"inconclusive: 10.4 µM [inhibitor, partial curve]",
O=C(CSc1nc2ccccc2[nH]1)NCc1ccccc1,"inconclusive: 18.5 µM [inhibitor, single point]",
COc1ccc(S(=O)(=O)N2CCCC2=O)cc1N(C)S(C)(=O)=O,"inconclusive: 18.5 µM [inhibitor, single point]",

Compound,Potency,"activity change, negative = inhibition"
C=CCN1C(=O)NC2(CCCCC2)C1=O,"inconclusive: 18.5 µM [inhibitor, partial curve, poor fit]",
COc1ccc(/C=C/C(=O)NCc2cnn(C)c2C)cc1COc1ccc(Br)cc1,"inconclusive: 1.17 µM [inhibitor, partial curve, poor fit]",
COc1c(C)cc(Br)cc1C(=O)NC(=S)NCc1ccco1,,inactive: 5.22%
Oc1ccc(N2CCN(c3nnnn3-c3ccccc3)CC2)cc1,"inconclusive: 10.4 µM [inhibitor, single point]",
Cc1ccc(-c2nn3c(C)nnc3c3ccccc23)cc1S(=O)(=O)NCc1ccccc1,active: 8.28 µM,
COCCN(CC1CCCN(C2Cc3ccccc3C2)C1)C(=O)c1ccc(C(C)=O)cc1 (stereo not given),,inactive: 49.4%
CC(=O)c1ccc(NC(=O)NC2CC(=O)N(c3ccc4c(c3)OCCO4)C2)cc1 (stereo not given),"inconclusive: 9.28 µM [inhibitor, partial curve, poor fit]",
Cc1cc(=O)nc2c3ccccc3n(C(C)C(=O)NCCN3CCOCC3)n12 (stereo not given),"inconclusive: 18.5 µM [inhibitor, single point]",
CCOc1ccccc1OCCCC(=O)NNC(=O)c1nn(C)c(=O)c2ccccc12,"inconclusive: 2.33 µM [inhibitor, full curve, poor fit]",
O=C(O)c1ccc(N2CCN(Cc3ccc4c(c3)OCO4)CC2)c([N+](=O)[O-])c1,,inactive: 10.4%
Cc1cc(C)c(Cn2cnc3ccccc32)c(C)c1,,inactive: 8.65%
Cc1ccc([N+](=O)[O-])cc1S(=O)(=O)NCCc1c(C)[nH]c2ccccc12,"inconclusive: 18.5 µM [inhibitor, single point]",
O=C(Nc1ccc(Cl)cn1)C1CCCN1S(=O)(=O)c1ccc(Cl)cc1 (stereo not given),"inconclusive: 18.5 µM [inhibitor, single point]",
O=C(O)CCCCCNC(=O)c1ccccc1Br,"inconclusive: 14.7 µM [inhibitor, partial curve, poor fit]",
CCn1c(SCC(=O)NC2CCCCC2)nnc1-c1cc2cccc(OC)c2o1,"inconclusive: 2.94 µM [inhibitor, partial curve, poor fit]",
O=C(NC(=S)N1CCN(C/C=C/c2ccccc2)CC1)c1ccc(Cl)nc1,"inconclusive: 2.62 µM [inhibitor, single point]",
CN(C)C(CNC(=O)CSc1nc2sc3c(c2c(=O)n1C)CCC3)c1ccccc1 (stereo not given),"inconclusive: 13.1 µM [inhibitor, single point]",
COc1ccc(-c2cc(C(=O)NCc3cccnc3)no2)cc1OC,active: 9.28 µM,
CN(C)C(=O)c1ccc(NC(=O)CN2CCc3cc4c(cc3C2)OCCCO4)cc1,"inconclusive: 18.5 µM [inhibitor, single point]",
CC(C)(C)OC(=O)NCCc1n[nH]c(=S)o1,"inconclusive: 4.15 µM [inhibitor, partial curve, poor fit]",
CCOC(=O)C1CCN(S(=O)(=O)c2ccc(C)c(C)c2)CC1,"inconclusive: 16.5 µM [inhibitor, single point]",
Cc1cnc(C(=O)N2CCCC(C(=O)c3ccc(C(C)(C)C)cc3)C2)cn1 (stereo not given),"inconclusive: 11.7 µM [inhibitor, single point]",
CSCCC(=O)N1CCCC(N(C)CCc2ccccc2)C1 (stereo not given),"inconclusive: 10.4 µM [inhibitor, single point]",
CN(CCc1cn[nH]c1)C(=O)CC1C(=O)NCCN1Cc1ccccc1C(F)(F)F (stereo not given),"inconclusive: 0.0033 µM [inhibitor, full curve, poor fit]",

Compound,Potency,"activity change, negative = inhibition"
CC(C)Sc1nc2c(c(=O)[nH]c(=O)n2C)n1CCc1ccccc1,"inconclusive: 18.5 µM [inhibitor, single point]",
Cn1ccnc1SCC(=O)Nc1cccc(C(F)(F)F)c1,"inconclusive: 0.147 µM [inhibitor, full curve, poor fit]",
Cc1nnc(SCCOC(N)=O)n1C,"inconclusive: 0.37 µM [inhibitor, partial curve, poor fit]",
CC(=O)Nc1cccc(NC(=O)CSc2nnnn2Cc2ccccc2)c1,active: 5.86 µM,
COc1ccc(C2CC(c3cccs3)=NN2C(=O)CSc2nc(=O)n3cc(C)ccc3n2)cc1 (stereo not given),active: 8.28 µM,
N/C(=N\OC(=O)C1CCCCC1)c1cccnc1,,inactive: 0%
COc1ccc(CSc2nnnn2-c2ccc(O)cc2)cc1F,"inconclusive: 9.28 µM [inhibitor, single point]",
Cc1ccc(NC(=O)C2CCCN(S(=O)(=O)c3cnc[nH]3)C2)cc1F (stereo not given),"inconclusive: 11.7 µM [inhibitor, partial curve]",
CSCCC(NC(=O)c1ccccc1Cl)C(=O)Nc1cccc(S(=O)(=O)N2CCCC2)c1 (stereo not given),"inconclusive: 8.28 µM [inhibitor, partial curve]",
CCCn1c(N)c(C(=O)CSc2nnc(-c3ccco3)n2Cc2ccccc2)c(=O)[nH]c1=O,,inactive: -0.048%
Cc1ccc(C(=O)N2CCCCC2)cc1NC1=C(Cl)C(=O)N(Cc2ccccc2)C1=O,active: 5.22 µM,
Cc1ccccc1C(=O)NC1CCN(Cc2nnnn2Cc2ccccc2)CC1,,inactive: -2.8%
O=C(NC1CC1)c1cc(-c2ccc(Br)cc2)nc2ccccc12,"inconclusive: 18.5 µM [inhibitor, single point]",
O=[N+]([O-])c1ccc(NCc2ccccc2N2CCC(CO)CC2)nc1,,inactive: -12.4%
CC(C)(C)c1ccc(/C=C/C(=O)NC2=NCCS2)cc1,,inactive: -13%
O=C(NCCSCc1ccccc1)c1ccccc1,,inactive: 0%
CC(C)Oc1ccc(Cn2c(-c3ccco3)n[nH]c2=S)cc1,"inconclusive: 2.08 µM [inhibitor, full curve]",
CC(=O)Nc1cccc(NC(=O)C(=O)NCC(c2ccco2)N2CCc3ccccc32)c1 (stereo not given),"inconclusive: 11.7 µM [inhibitor, partial curve]",
CCc1nonc1NC(=O)COc1ccc(Cl)c(C)c1,active: 4.15 µM,
O=C(NCCO[N+](=O)[O-])c1cccnc1,"inconclusive: 1.9 µM [inhibitor, full curve]",
CCCCNC(=O)CSc1nc2cc3c(cc2c(=O)n1CCC(=O)NCCc1ccc(OC)c(OC)c1)OCO3,,inactive: 39.3%
CCOC(=O)C1=C(C)N(CCCCCC(=O)O)C(=O)NC1c1ccccc1OC(=O)c1cccs1 (stereo not given),"inconclusive: 20.8 µM [inhibitor, single point]",

# In the list so far, these have two or more sulfur atoms.
Compound,Potency,"activity change, negative = inhibition"
COc1ccc(S(=O)(=O)N2CCCC2=O)cc1N(C)S(C)(=O)=O,"inconclusive: 18.5 µM [inhibitor, single point]",
CN(C)C(CNC(=O)CSc1nc2sc3c(c2c(=O)n1C)CCC3)c1ccccc1 (stereo not given),"inconclusive: 13.1 µM [inhibitor, single point]",
COc1ccc(C2CC(c3cccs3)=NN2C(=O)CSc2nc(=O)n3cc(C)ccc3n2)cc1 (stereo not given),active: 8.28 µM,
CSCCC(NC(=O)c1ccccc1Cl)C(=O)Nc1cccc(S(=O)(=O)N2CCCC2)c1 (stereo not given),"inconclusive: 8.28 µM [inhibitor, partial curve]",
